Assay results taken from PubChem BioAssay AID1671190 (National Center for Advancing Translational Sciences (NCATS), 2021).
In all, about 580,000 compounds went through this assay and about 6,100 (1.1%) were called active. Inconclusive means that the source gave no clear call. Such entries were picked first, then a sample of the others. Calls come from the whole dose curve; as a rule, active = well fitted inhibition curve with a large enough effect; inconclusive = small, poorly fitted or top-dose-only effect, or another doubt; inactive = no such curve, though single readings can be large or run the other way. Potencies of inconclusive entries are doubtful fits and often do not repeat. The source holds several records for some structures; these can differ, active in one and inactive in another.
% is set by controls: 0 for no effect and ±100 for the full control effect; potency is the fitted concentration of half-maximal effect.

Sequences of proteins named here, by UniProt entry; tags and fusion partners are left off. A change or cut given only in a name is not applied to a line headed by its entry.
UniProt P18054: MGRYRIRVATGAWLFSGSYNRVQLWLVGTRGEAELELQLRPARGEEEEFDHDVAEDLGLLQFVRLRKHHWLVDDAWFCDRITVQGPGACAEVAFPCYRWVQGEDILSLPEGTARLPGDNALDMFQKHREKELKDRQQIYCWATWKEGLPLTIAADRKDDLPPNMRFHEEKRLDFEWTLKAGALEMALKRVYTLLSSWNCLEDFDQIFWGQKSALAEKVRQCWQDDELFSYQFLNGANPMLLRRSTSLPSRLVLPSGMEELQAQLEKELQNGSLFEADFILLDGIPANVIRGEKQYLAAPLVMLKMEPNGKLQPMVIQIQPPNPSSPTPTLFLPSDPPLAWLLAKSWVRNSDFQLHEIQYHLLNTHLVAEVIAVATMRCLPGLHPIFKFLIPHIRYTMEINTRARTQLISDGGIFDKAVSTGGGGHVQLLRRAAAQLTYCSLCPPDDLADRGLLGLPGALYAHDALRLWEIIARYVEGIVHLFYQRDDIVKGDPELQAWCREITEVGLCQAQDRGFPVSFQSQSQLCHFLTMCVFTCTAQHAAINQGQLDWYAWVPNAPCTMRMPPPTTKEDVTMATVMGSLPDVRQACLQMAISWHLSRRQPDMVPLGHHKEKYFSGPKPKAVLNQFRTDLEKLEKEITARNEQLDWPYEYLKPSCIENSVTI

What follows are compounds tested against Polyunsaturated fatty acid lipoxygenase ALOX12 (Homo sapiens) (UniProt P18054) (assay: Primary qHTS assay for inhibitors of human arachidonate 12S-lipoxygenase (ALOX12): Round 2). Conditions: purified 12hLO, xylenol orange hydroperoxide absorbance; activity change, negative = inhibition: at 108 µM (top of the series) unless noted.
In short: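 Purified human 12hLO at 150 nM in 25 mM Hepes, 0.01% Triton X-100, pH 7.0, preincubated 15 min at room temperature with compound. Reaction started with 40 uM arachidonic acid, 30 min at room temperature. Hydroperoxide measured by Fe-xylenol orange, 573/405 nm absorbance ratio.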
In the case of `Cn1c(SCC(=O)NNC(=O)c2ccccc2O)nnc1-c1ccccc1`, the Potency is reported as inconclusive: 3.16 µM [inhibitor, full curve, poor fit].
With `CCCCCCCCCCCCCCCC[N+](C)(C)Cc1ccccc1` the Potency was inconclusive: 16.1 µM [inhibitor, partial curve, poor fit].
In the case of `COc1ccc2oc(CNC(=O)c3cc(CC(C)C)nn3C)nc2c1`, the “activity change, negative = inhibition” value is reported as inactive: 59.6%.
With `COc1ccccc1CNC(=O)c1c2c(nc3ccccc13)C(=O)N(C1CCCCC1)C2` the Potency was inconclusive: 5.62 µM [inhibitor, full curve, poor fit].
With `CCOc1cccc(C(=O)NCc2nc(-c3cccs3)no2)c1` the “activity change, negative = inhibition” value was inactive: -15.3%.
With `CCC1CCCCN1C(=O)CSc1nc2c(c(=O)n(C)c(=O)n2C)n1C` (centres undefined) the Potency was inconclusive: 0.0794 µM [inhibitor, full curve, poor fit].
For `Cc1cc(C(=O)Cn2nc(C(=O)O)c3ccccc3c2=O)c(C)n1CCc1ccc(Cl)cc1`, the Potency was inconclusive: 31.6 µM [inhibitor, partial curve, poor fit].
For `CN1/C(=C\C(=O)CSc2cccc[n+]2[O-])C(C)(C)c2ccccc21`, the “activity change, negative = inhibition” value was inactive: -23.6%.
With `CC(=O)c1ccc(N2CCC(Oc3ccc(C)cc3)(C(=O)O)CC2)nc1` the “activity change, negative = inhibition” value was inactive: 34.4%.
In the case of `NCc1ccc(CS(N)(=O)=O)cc1`, the Potency is reported as inconclusive: 31.6 µM [inhibitor, partial curve, poor fit].
With `O=NN(CC(=O)NNc1ccccc1)CC(=O)NNc1ccccc1` the Potency was inconclusive: 56.2 µM [inhibitor, partial curve, poor fit].
For `O=C(NCC(=O)N1CCCN(S(=O)(=O)c2ccc(F)cc2)CC1)NCc1ccccc1`, the “activity change, negative = inhibition” value was inactive: 13%.
`COC(=O)c1ccc(CNC(=O)COC(=O)/C=C/c2cccc(OC)c2)cc1` was tested, and the Potency was inconclusive: 100 µM [inhibitor, partial curve, poor fit].
With `COCCNC(=O)CSCc1nc(-c2ccc(C)cc2)oc1C` the “activity change, negative = inhibition” value was inactive: 47.1%.
`CCOc1ccccc1/C=C/C(=O)c1cccc(O)c1` was tested, and the Potency was inconclusive: 35.5 µM [inhibitor, partial curve, poor fit].
With `CCc1cc(C(=O)N2CCN(C(=O)c3ccco3)CC2)sc1C` the “activity change, negative = inhibition” value was inactive: 13.4%.
`C=CCn1c(=O)[nH]c2cc(C(=O)N3CCN(c4cccc(Cl)c4)CC3)ccc2c1=O` was tested, and the Potency was inconclusive: 31.6 µM [inhibitor, partial curve, poor fit].
For `COc1ccc(OC)c(C2C(C(C)=O)=C(O)C(=O)N2CCc2ccc(OC)c(OC)c2)c1` (centres undefined), the Potency was inconclusive: 0.562 µM [inhibitor, full curve, poor fit].
`O=C(CCCn1c(=O)[nH]c2cc(Cl)ccc2c1=O)NC1CCCCCC1` was tested, and the “activity change, negative = inhibition” value was inactive: 0%.
`CCN(CC)CC[C@H]1CN(C(=O)c2ccnc(Cl)c2)CC[C@H]1CC(=O)O` was tested, and the “activity change, negative = inhibition” value was inactive: 21.9% [at 176 µM].
For `O=C(CCc1nnc2ccc(NCc3ccc4c(c3)OCO4)nn12)N1CCc2ccccc2C1`, the Potency was inconclusive: 100 µM [inhibitor, single point].
With `Cc1oc(-c2ccccc2)nc1CSc1nc2c(c(=O)[nH]1)CCC2` the Potency was inconclusive: 14.1 µM [inhibitor, full curve].
For `Cn1c(CNc2ccccc2O)nc2ccccc21`, the Potency was inconclusive: 70.8 µM [inhibitor, partial curve, poor fit].
In the case of `COc1cc(NC(=S)NC(=O)c2c(OC)cccc2OC)ccc1NC(=O)c1cccs1`, the Potency is reported as inconclusive: 22.4 µM [inhibitor, partial curve, poor fit].
In the case of `CC(C)CN1C(=O)c2ccccc2C1c1nnnn1-c1ccc2c(c1)OCCO2` (centres undefined), the Potency is reported as inconclusive: 126 µM [inhibitor, single point].
In the case of `O=C(NCCCN1CCOCC1)c1ccc(-c2ccc(Cl)cc2)o1`, the Potency is reported as inconclusive: 50.1 µM [inhibitor, partial curve, poor fit].
With `Cc1ccc(S(=O)(=O)Nc2ccc3c4c(cccc24)CC3)c(C)c1` the “activity change, negative = inhibition” value was inactive: 10.7%.
For `O=C(c1ccc2oc(-c3cccc(F)c3)nc2c1)N1CCCCC1CCO` (centres undefined), the “activity change, negative = inhibition” value was inactive: -5.78%.
With `O=C(O)CSCC(=O)c1c[nH]c2ccccc12` the Potency was inconclusive: 44.7 µM [inhibitor, partial curve, poor fit].
For `COCCCNC(=O)CN1C(=O)c2c(c3ccccc3n2C)C1c1ccc(OC)cc1` (centres undefined), the Potency was inconclusive: 63.1 µM [inhibitor, partial curve, poor fit].
For `COc1cccc(/C=C/c2nc(C#N)c(N(C)Cc3ccccc3)o2)c1`, the Potency was inconclusive: 50.1 µM [inhibitor, partial curve, poor fit].
With `CCOc1ccc(NC(=O)CN2C(=O)NC(CCSC)C2=O)cc1` (centres undefined) the Potency was inconclusive: 112 µM [inhibitor, single point].
In the case of `COc1cccc(C(=O)N2CCC(c3nn(-c4ccc(Cl)cc4)c(=O)[nH]3)CC2)c1`, the Potency is reported as active: 35.5 µM.
With `CC1(C)CS(=O)(=O)N(c2ccc(C(=O)Nc3ccc4c(c3)OCCO4)cc2)C1=O` the “activity change, negative = inhibition” value was inactive: 110%.
In the case of `O=S(=O)(NCc1ccc2c(c1)OCCO2)c1ccccc1Cl`, the Potency is reported as inconclusive: 4.47 µM [inhibitor, full curve].
With `Cc1ccccc1OCc1nnc(SCC(=O)O)n1Cc1ccccc1` the Potency was inconclusive: 141 µM [inhibitor, partial curve, poor fit].
In the case of `O=S(=O)(c1c(F)cccc1F)N1CCN(Cc2c(O)ccc3ccccc23)CC1`, the Potency is reported as active: 12.6 µM.
In the case of `CC1CC(=O)N(CC(=O)Nc2ccc(Br)cc2)c2ccccc2S1(=O)=O` (centres undefined), the Potency is reported as inconclusive: 50.1 µM [inhibitor, partial curve, poor fit].
`CCC(=O)NC(c1cc(Cl)c2ccccc2c1O)C1CC1` (centres undefined) was tested, and the “activity change, negative = inhibition” value was inactive: -22.1%.
`COc1ccc(NC(=O)C(c2ccccn2)N(C(C)=O)c2ccc(C)cc2)cc1` (centres undefined) was tested, and the “activity change, negative = inhibition” value was inactive: -3.18%.
`CCOC(=O)N1CCN(S(=O)(=O)c2cc(Cl)c(C)cc2OCC)CC1` was tested, and the Potency was inconclusive: 22.4 µM [inhibitor, single point].
With `Cc1ccccc1NC1(c2nnnn2-c2ccccc2C)CCCCC1` the “activity change, negative = inhibition” value was inactive: -0.499%.
`Cc1ccc(NC(=O)c2cc(-c3ccc4c(c3)OCO4)on2)cc1` was tested, and the Potency was “inactive”.
In the case of `COc1cccc(C(=O)NCCC(C)C)c1`, the “activity change, negative = inhibition” value is reported as inactive: 7.69%.
With `O=C1C(=O)N(Cc2ccccc2)C(=O)N1CCN1C(=O)c2ccccc2C1=O` the “activity change, negative = inhibition” value was inactive: 10.2%.
With `COc1ccccc1NC(=O)C(C)OC(=O)CSCC(=O)Nc1cc(C)on1` (centres undefined) the “activity change, negative = inhibition” value was inactive: -8.76%.
For `CCOc1cc(-c2noc(-c3ccccc3)n2)ccc1OCC(=O)NC(C)(C)C`, the Potency was inconclusive: 89.1 µM [inhibitor, single point].
With `CCOc1ccc(CNC(=O)COc2cc(=O)n(C)c3ccccc23)cc1` the “activity change, negative = inhibition” value was inactive: 0%.
`O=C(NCc1ccccc1)c1ccccc1OC1CN(Cc2cccc(F)c2)C1` was tested, and the “activity change, negative = inhibition” value was inactive: 4.61%.
For `C=CCNC(=S)N/N=C1\CCS(=O)(=O)c2ccccc21`, the Potency was inconclusive: 79.4 µM [inhibitor, partial curve, poor fit].
For `Cc1ccc(-c2c3c(nc4sc5c(c24)CCCC5)CC(C)(C)CC3=O)cc1`, the Potency was inconclusive: 126 µM [inhibitor, single point].
For `CNC(=O)NC(=O)CSc1nnc(-c2ccccc2Cl)n1-c1cccc(C(F)(F)F)c1`, the “activity change, negative = inhibition” value was inactive: -7.87%.
In the case of `N#CC1=C(N)Oc2[nH]c(=S)[nH]c(=O)c2C12C(=O)Nc1ccccc12` (centres undefined), the Potency is reported as active: 14.1 µM.
`CCc1nn2c(=O)cc(CNc3ccccc3NC(=O)c3ccccc3)nc2s1` was tested, and the Potency was inconclusive: 70.8 µM [inhibitor, partial curve, poor fit].
For `CCC(=O)N1CCc2cc(S(=O)(=O)NC(C(=O)NCc3ccc(OC)cc3)C(C)C)ccc21` (centres undefined), the Potency was inconclusive: 50.1 µM [inhibitor, partial curve, poor fit].
In the case of `CN(Cc1ccccc1)C(=O)NC1CCCCC1`, the “activity change, negative = inhibition” value is reported as inactive: 0%.
`CCCCc1ccc(-c2cc(C(=O)NC3CC3)c3cc(Br)ccc3n2)cc1` was tested, and the “activity change, negative = inhibition” value was inactive: -16.9%.
In the case of `O=C(COC(=O)c1ccccc1C(=O)c1ccc(Cl)cc1)NCc1ccccc1`, the “activity change, negative = inhibition” value is reported as inactive: -19.5%.
For `Cc1ccc(COc2ccccc2C(=S)N2CCCC2)cc1`, the “activity change, negative = inhibition” value was inactive: -9.23%.
For `COc1cccc(-n2nnnc2SCC(=O)NC2CCCC2)c1`, the “activity change, negative = inhibition” value was inactive: -11.3%.
With `Cc1cccc(C(=O)NCC23CCC=C2N(C)C(=O)CC3)c1` (centres undefined) the “activity change, negative = inhibition” value was inactive: 28.8%.
With `Cc1cccc(-c2cc3c(nn2)-c2ccccc2C3=O)c1` the “activity change, negative = inhibition” value was inactive: -3.36%.
`Cc1cc([N+](=O)[O-])c(C)cc1-c1ccc(/C=N/n2cnnc2)o1` was tested, and the Potency was inconclusive: 50.1 µM [inhibitor, partial curve, poor fit].
For `CCC(=O)Nc1sc2c(c1C(N)=O)CCC2`, the “activity change, negative = inhibition” value was inactive: 0%.
For `CC[C@](N)(CCC(=O)O)C(=O)O`, the Potency was active: 2.82 µM.
With `CN1CC(=O)N(C2CCCNCC2)Cc2c1ncnc2N1CCC(N2CCCC2)CC1` (centres undefined) the Potency was inconclusive: 3.55 µM [inhibitor, full curve].
In the case of `CCCCCCSC1=C(C#N)C(c2ccc(O)cc2)CC(=O)N1` (centres undefined), the Potency is reported as inconclusive: 70.8 µM [inhibitor, partial curve, poor fit].
For `CCOC(=O)c1cc2c(=O)n3ccccc3nc2n(Cc2ccco2)c1=NC(=O)c1cc(C)cc(C)c1`, the Potency was inconclusive: 100 µM [inhibitor, single point].
`COC(=O)c1ccc(NC(=O)c2nn(C)c3c2CS(=O)(=O)c2ccccc2-3)cc1` was tested, and the “activity change, negative = inhibition” value was inactive: -10.1%.
With `O=C1CCN(C(=O)CCCc2ccccc2)CCCCCCN1` the “activity change, negative = inhibition” value was inactive: 54.7%.
`N#Cc1ccc(CN2CC(Oc3ccc(F)c(F)c3)C2)cc1` was tested, and the activity change, negative = inhibition was inactive: -3.02% [at 12.5 µM].
With `O=c1c(Cl)c(N/N=C/c2ccc(Cl)cc2)cnn1-c1ccccc1` the Potency was inconclusive: 89.1 µM [inhibitor, single point].
With `N#Cc1ccc(Cl)cc1NC(=O)COC(=O)c1cccc(S(=O)(=O)N2CCCCCC2)c1` the Potency was inconclusive: 44.7 µM [inhibitor, single point].
In the case of `CCOC(=O)c1sc(NC(=O)CSc2nc3ccccc3o2)c(C(=O)OCC)c1C`, the “activity change, negative = inhibition” value is reported as inactive: 25.8%.
